Reference: PubChem BioAssay AID1508597 (Cure First, 2020)
The whole screen tested about 2,100 reagents; this is an unselected part. 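Calls flag viability under 80% in either arm, not effects specific to rucaparib; the reference for percent is not stated.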 Not stated in the record: the 100% reference.

Screen: 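Survival screen with siRNA in ovarian cancer cells derived from patients, with or without rucaparib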 (primary screen)
Cells: human ovarian carcinoma lines grown from tumours: OCI-P5x (papillary serous) and OCI-C5x (clear cell)
Reagent: siRNA pool against human genes, 1.25 pmol siRNA per well
Time to read-out: 72 h or 96 h, depending on the cell culture
Conditions: rucaparib 20 µM (about IC30) or vehicle, present until read-out
Measured: 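ATP luminescence measured at 72 or 96 h according to the culture, then normalised and expressed as percent viability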
Direction: viability, normalised: higher = more viable cells remaining
Hit rule: 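Active when normalised viability falls below 80 percent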
Calls: active = viability under 80%; inactive = viability 80% or more

gene symbol | rucaparib or vehicle | cell line | technical replicate | viability, normalised (%) | Outcome
ZDHHC2 (GeneID 51201) | Rucaparib | OCI-C5x (clear cell) | 1 | 74.1 | active
ZDHHC2 (GeneID 51201) | Rucaparib | OCI-C5x (clear cell) | 2 | 57.5 | active
ZDHHC2 (GeneID 51201) | Rucaparib | OCI-C5x (clear cell) | 3 | 51.6 | active
ZDHHC2 (GeneID 51201) | Rucaparib | OCI-P5x (serous) | 1 | 82.8 | inactive
ZDHHC2 (GeneID 51201) | Rucaparib | OCI-P5x (serous) | 2 | 67.2 | active
ZDHHC2 (GeneID 51201) | Rucaparib | OCI-P5x (serous) | 3 | 83.7 | inactive
ZDHHC2 (GeneID 51201) | Vehicle | OCI-C5x (clear cell) | 1 | 61.6 | active
ZDHHC2 (GeneID 51201) | Vehicle | OCI-C5x (clear cell) | 2 | 70.8 | active
ZDHHC2 (GeneID 51201) | Vehicle | OCI-C5x (clear cell) | 3 | 72.6 | active
ZDHHC2 (GeneID 51201) | Vehicle | OCI-P5x (serous) | 1 | 80.9 | inactive
ZDHHC2 (GeneID 51201) | Vehicle | OCI-P5x (serous) | 2 | 76.2 | active
ZDHHC2 (GeneID 51201) | Vehicle | OCI-P5x (serous) | 3 | 138 | inactive
NOTCH1 (GeneID 4851) | Rucaparib | OCI-C5x (clear cell) | 1 | 50.7 | active
NOTCH1 (GeneID 4851) | Rucaparib | OCI-C5x (clear cell) | 2 | 43.4 | active
NOTCH1 (GeneID 4851) | Rucaparib | OCI-C5x (clear cell) | 3 | 41.9 | active
NOTCH1 (GeneID 4851) | Rucaparib | OCI-P5x (serous) | 1 | 45.7 | active
NOTCH1 (GeneID 4851) | Rucaparib | OCI-P5x (serous) | 2 | 61.5 | active
NOTCH1 (GeneID 4851) | Rucaparib | OCI-P5x (serous) | 3 | 51.9 | active
NOTCH1 (GeneID 4851) | Vehicle | OCI-C5x (clear cell) | 1 | 43.5 | active
NOTCH1 (GeneID 4851) | Vehicle | OCI-C5x (clear cell) | 2 | 39.5 | active
NOTCH1 (GeneID 4851) | Vehicle | OCI-C5x (clear cell) | 3 | 57.1 | active
NOTCH1 (GeneID 4851) | Vehicle | OCI-P5x (serous) | 1 | 56.4 | active
NOTCH1 (GeneID 4851) | Vehicle | OCI-P5x (serous) | 2 | 64.3 | active
NOTCH1 (GeneID 4851) | Vehicle | OCI-P5x (serous) | 3 | 77.6 | active

In a second layout: 2 of the entries above.
gene symbol,rucaparib or vehicle,cell line,technical replicate,"viability, normalised (%)",Outcome
ZDHHC2 (GeneID 51201),Rucaparib,OCI-P5x (serous),3,83.7,inactive
ZDHHC2 (GeneID 51201),Vehicle,OCI-C5x (clear cell),1,61.6,active
